We go through four molecules from article doi:10.1101/351056.

By UniProt entry, the sequences of proteins in these tests, tags left out. Where a name states a change or a piece, a line headed by the entry shows the natural chain unless it says otherwise. Residues count along the entry.
UniProt O22476: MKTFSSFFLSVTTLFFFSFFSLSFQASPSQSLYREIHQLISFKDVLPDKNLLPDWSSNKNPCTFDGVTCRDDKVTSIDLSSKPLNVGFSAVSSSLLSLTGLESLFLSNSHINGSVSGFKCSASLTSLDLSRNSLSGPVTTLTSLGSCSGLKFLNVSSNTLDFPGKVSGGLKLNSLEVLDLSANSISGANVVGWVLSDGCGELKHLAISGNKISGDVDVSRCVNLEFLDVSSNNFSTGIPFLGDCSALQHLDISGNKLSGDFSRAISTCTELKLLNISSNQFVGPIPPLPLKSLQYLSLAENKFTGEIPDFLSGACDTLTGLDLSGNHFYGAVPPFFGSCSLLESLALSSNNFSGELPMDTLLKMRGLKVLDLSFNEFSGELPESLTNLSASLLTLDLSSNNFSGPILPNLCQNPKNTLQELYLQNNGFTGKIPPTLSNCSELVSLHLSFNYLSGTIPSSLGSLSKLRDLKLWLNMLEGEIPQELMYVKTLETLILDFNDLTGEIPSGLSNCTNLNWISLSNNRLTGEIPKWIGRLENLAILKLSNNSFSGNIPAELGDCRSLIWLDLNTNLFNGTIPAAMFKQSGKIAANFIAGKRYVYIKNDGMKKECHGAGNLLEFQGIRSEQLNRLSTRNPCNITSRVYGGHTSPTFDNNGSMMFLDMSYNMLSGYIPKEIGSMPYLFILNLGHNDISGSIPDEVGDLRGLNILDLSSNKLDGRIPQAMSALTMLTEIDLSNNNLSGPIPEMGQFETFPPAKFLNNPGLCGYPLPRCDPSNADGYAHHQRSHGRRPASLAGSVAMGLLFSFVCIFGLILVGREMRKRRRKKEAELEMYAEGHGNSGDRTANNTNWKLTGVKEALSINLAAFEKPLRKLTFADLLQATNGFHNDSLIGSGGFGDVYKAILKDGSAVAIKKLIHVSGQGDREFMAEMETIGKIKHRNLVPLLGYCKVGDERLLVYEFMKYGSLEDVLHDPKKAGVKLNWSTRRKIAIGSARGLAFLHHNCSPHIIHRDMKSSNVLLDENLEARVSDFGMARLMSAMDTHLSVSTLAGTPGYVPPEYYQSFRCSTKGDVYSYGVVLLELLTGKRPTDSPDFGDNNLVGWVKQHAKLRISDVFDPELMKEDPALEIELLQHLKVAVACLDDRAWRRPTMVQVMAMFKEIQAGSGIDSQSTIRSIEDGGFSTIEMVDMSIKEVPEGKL
BRI1-cYFP: residues 24-1196 of O22476
UniProt Q9LR78: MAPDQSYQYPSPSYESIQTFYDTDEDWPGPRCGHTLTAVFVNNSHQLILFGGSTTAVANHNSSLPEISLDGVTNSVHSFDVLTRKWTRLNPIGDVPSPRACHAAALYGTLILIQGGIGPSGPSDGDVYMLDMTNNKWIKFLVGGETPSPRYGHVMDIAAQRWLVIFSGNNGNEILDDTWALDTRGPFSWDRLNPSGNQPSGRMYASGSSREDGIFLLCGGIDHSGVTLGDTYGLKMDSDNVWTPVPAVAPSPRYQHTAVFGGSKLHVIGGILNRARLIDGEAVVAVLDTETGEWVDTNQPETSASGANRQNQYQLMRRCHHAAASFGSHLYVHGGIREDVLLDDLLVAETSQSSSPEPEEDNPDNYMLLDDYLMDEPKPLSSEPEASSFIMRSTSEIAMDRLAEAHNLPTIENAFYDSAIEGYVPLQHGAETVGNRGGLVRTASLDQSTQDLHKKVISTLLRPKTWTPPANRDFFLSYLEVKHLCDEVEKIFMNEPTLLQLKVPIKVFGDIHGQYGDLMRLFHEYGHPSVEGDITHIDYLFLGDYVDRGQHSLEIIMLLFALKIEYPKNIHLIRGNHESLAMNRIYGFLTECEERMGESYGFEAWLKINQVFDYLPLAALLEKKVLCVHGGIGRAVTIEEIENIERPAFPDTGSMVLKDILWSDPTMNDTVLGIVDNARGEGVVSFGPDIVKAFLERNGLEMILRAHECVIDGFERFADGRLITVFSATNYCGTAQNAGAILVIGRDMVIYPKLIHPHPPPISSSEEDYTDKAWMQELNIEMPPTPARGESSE

For test [1], the target named is T1, BIN2 (yeast two-hybrid fusion) (Arabidopsis thaliana) (UniProt Q39011).
T1 sequence: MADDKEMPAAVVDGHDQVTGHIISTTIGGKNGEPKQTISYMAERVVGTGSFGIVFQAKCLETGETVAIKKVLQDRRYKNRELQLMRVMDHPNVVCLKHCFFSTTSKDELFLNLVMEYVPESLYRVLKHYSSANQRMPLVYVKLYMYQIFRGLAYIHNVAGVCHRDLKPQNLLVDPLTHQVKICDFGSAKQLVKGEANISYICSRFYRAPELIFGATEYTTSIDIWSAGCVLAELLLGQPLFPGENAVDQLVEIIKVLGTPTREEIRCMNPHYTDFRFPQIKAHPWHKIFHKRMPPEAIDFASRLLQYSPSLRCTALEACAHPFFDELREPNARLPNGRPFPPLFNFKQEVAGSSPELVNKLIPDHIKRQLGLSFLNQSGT
Briefly: two-hybrid.

Test [2] addresses T2, TTL3ΔN1 (yeast two-hybrid fusion) (Arabidopsis thaliana) (UniProt Q9SIN1).
T2 sequence: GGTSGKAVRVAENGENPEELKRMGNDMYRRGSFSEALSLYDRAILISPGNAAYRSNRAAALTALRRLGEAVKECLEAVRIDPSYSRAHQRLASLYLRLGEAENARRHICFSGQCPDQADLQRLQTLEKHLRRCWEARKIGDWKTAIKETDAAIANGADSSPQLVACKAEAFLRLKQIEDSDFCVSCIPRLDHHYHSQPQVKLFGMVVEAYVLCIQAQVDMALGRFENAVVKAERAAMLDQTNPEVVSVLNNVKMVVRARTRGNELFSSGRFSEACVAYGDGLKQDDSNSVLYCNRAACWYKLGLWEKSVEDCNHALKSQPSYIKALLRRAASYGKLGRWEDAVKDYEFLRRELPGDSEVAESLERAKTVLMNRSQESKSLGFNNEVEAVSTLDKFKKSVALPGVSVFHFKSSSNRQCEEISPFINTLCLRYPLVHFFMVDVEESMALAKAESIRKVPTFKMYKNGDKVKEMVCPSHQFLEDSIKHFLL
Briefly: two-hybrid.

The target in test [3] is T3, TTL3ΔN2 (yeast two-hybrid fusion) (Arabidopsis thaliana) (UniProt Q9SIN1).
T3 sequence: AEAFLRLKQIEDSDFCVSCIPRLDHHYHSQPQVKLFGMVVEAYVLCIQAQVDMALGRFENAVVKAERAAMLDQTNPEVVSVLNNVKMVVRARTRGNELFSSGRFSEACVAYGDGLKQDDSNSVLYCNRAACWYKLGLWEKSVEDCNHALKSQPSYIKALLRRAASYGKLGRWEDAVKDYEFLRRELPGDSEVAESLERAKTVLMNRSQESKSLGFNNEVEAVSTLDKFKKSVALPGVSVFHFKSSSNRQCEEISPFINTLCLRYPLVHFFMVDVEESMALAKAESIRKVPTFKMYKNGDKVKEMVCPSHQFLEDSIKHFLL
Briefly: two-hybrid.

Test [4] concerns the target T4, GST-TTL3ΔN1 (Arabidopsis thaliana) (UniProt Q9SIN1).
T4 sequence: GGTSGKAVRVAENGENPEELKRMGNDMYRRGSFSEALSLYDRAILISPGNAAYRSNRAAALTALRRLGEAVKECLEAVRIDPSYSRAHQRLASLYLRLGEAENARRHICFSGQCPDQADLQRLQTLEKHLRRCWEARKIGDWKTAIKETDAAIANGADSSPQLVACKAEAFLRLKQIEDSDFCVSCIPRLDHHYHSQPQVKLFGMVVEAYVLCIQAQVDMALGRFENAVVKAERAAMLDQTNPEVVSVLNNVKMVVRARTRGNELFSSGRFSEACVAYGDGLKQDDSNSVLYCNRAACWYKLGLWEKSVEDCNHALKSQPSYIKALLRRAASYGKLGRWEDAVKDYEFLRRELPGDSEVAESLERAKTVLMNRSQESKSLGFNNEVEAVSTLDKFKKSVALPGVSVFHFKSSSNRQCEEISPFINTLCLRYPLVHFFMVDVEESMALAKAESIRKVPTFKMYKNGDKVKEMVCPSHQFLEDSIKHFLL
Briefly: pull-down.

The target of test [5] is T5, GST-TTL3ΔN3 (Arabidopsis thaliana) (UniProt Q9SIN1).
T5 sequence: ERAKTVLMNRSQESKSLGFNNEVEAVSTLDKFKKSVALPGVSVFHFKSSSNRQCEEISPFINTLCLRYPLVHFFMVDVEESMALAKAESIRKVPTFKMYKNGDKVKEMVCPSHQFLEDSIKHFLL
Briefly: pull-down.

In test [6] the target is BRI1-nYFP (Arabidopsis thaliana) (UniProt O22476). Briefly: split reporter.
Test [7] has as its target T6, TTL3-nYFP (Arabidopsis thaliana) (UniProt Q9SIN1).
T6 sequence: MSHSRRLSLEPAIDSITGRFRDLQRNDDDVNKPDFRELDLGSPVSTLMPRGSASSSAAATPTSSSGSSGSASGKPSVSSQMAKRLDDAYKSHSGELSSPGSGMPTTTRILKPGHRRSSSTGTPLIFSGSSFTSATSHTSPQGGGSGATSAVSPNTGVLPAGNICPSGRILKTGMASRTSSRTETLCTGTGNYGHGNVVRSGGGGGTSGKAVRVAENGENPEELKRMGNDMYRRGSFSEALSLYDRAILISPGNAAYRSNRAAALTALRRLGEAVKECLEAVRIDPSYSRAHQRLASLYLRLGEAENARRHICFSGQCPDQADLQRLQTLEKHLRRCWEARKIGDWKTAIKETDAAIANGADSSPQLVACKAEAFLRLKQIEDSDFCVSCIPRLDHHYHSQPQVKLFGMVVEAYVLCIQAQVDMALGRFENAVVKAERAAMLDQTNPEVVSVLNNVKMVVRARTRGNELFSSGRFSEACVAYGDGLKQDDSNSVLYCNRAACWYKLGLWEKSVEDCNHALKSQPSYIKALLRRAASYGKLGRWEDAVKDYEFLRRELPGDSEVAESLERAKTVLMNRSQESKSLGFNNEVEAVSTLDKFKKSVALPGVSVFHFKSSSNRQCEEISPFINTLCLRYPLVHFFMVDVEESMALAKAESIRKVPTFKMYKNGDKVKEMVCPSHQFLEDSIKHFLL
Briefly: split reporter.

The target of test [8] is BRI1-cYFP (Arabidopsis thaliana) (UniProt O22476). Briefly: split reporter.
Test [9] deals with T7, TTL3-cYFP (Arabidopsis thaliana) (UniProt Q9SIN1).
T7 sequence: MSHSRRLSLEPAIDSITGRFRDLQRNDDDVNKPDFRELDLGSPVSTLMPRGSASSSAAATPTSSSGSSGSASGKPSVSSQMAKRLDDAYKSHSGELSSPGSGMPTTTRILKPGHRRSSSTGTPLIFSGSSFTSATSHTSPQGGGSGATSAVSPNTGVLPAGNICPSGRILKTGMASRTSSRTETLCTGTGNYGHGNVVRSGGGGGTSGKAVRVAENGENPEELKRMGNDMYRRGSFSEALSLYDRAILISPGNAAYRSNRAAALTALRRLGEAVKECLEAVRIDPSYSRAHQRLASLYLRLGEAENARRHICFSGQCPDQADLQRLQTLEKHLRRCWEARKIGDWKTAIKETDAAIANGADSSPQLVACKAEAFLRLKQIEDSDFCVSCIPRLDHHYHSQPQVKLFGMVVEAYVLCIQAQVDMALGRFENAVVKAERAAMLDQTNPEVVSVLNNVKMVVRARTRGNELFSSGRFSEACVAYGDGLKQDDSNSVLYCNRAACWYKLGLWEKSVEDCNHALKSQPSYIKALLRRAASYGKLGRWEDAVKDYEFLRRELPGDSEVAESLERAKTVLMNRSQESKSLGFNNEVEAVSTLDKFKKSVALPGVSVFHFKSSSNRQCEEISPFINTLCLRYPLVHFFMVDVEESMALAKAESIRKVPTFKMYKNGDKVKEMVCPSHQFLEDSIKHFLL
Briefly: split reporter.

Results are given in words; binding and its absence hold for the method and conditions named. For part of these data: In cells and extracts the contact can be indirect. Some results given as binding are weak or reduced against the parent protein; the word gives no strength. Sequences can lack the tags named with a protein.

As to “BSU1 (yeast two-hybrid fusion) (from UniProt Q9LR78 1-793) (enzyme)”, the binding entry in test [1] was “binds”; in [2] it was “binds”; in test [3], “no binding”.

For the molecule “MBP-BRI1cyt (from UniProt O22476 814-1196) (domain or fragment)”, the binding result in [4] and in test [5] was “no binding” in each case.

B1: BAK1-cYFP (receptor, UniProt Q94F62 26-615)
chain: NAEGDALSALKNSLADPNKVLQSWDATLVTPCTWFHVTCNSDNSVTRVDLGNANLSGQLVMQLGQLPNLQYLELYSNNITGTIPEQLGNLTELVSLDLYLNNLSGPIPSTLGRLKKLRFLRLNNNSLSGEIPRSLTAVLTLQVLDLSNNPLTGDIPVNGSFSLFTPISFANTKLTPLPASPPPPISPTPPSPAGSNRITGAIAGGVAAGAALLFAVPAIALAWWRRKKPQDHFFDVPAEEDPEVHLGQLKRFSLRELQVASDNFSNKNILGRGGFGKVYKGRLADGTLVAVKRLKEERTQGGELQFQTEVEMISMAVHRNLLRLRGFCMTPTERLLVYPYMANGSVASCLRERPESQPPLDWPKRQRIALGSARGLAYLHDHCDPKIIHRDVKAANILLDEEFEAVVGDFGLAKLMDYKDTHVTTAVRGTIGHIAPEYLSTGKSSEKTDVFGYGVMLLELITGQRAFDLARLANDDDVMLLDWVKGLLKEKKLEALVDVDLQGNYKDEEVEQLIQVALLCTQSSPMERPKMSEVVRMLEGDGLAERWEEWQKEEMFRQDFNYPTHHPAVSGWIIGDSTSQIENEYPSGPR
With B1, the binding entry in test [6] is “binds weakly”; in test [7] it was “no binding”.

B2: BAK1-nYFP (receptor, UniProt Q94F62 26-615)
chain: NAEGDALSALKNSLADPNKVLQSWDATLVTPCTWFHVTCNSDNSVTRVDLGNANLSGQLVMQLGQLPNLQYLELYSNNITGTIPEQLGNLTELVSLDLYLNNLSGPIPSTLGRLKKLRFLRLNNNSLSGEIPRSLTAVLTLQVLDLSNNPLTGDIPVNGSFSLFTPISFANTKLTPLPASPPPPISPTPPSPAGSNRITGAIAGGVAAGAALLFAVPAIALAWWRRKKPQDHFFDVPAEEDPEVHLGQLKRFSLRELQVASDNFSNKNILGRGGFGKVYKGRLADGTLVAVKRLKEERTQGGELQFQTEVEMISMAVHRNLLRLRGFCMTPTERLLVYPYMANGSVASCLRERPESQPPLDWPKRQRIALGSARGLAYLHDHCDPKIIHRDVKAANILLDEEFEAVVGDFGLAKLMDYKDTHVTTAVRGTIGHIAPEYLSTGKSSEKTDVFGYGVMLLELITGQRAFDLARLANDDDVMLLDWVKGLLKEKKLEALVDVDLQGNYKDEEVEQLIQVALLCTQSSPMERPKMSEVVRMLEGDGLAERWEEWQKEEMFRQDFNYPTHHPAVSGWIIGDSTSQIENEYPSGPR
For the molecule B2, the values for the binding result in test [8] and in test [9] were “binds weakly” and “no binding”, respectively.
